Record: PubChem BioAssay AID1224826 (NIAID, 2016)

Test: 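Genes that change LPS-induced Tnf promoter activity in mouse macrophages when knocked down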 (primary screen)
Cells: RAW264.7 G9 macrophages from mouse bearing reporters for p65 (GFP) and the Tnf promoter (mCherry)
Reagents: siRNA pool against mouse genes, 100 nM
Timing: 16 h of LPS stimulation, after 2 days of siRNA transfection
Treatment: bacterial lipopolysaccharide (Salmonella minnesota R595), 10 ng/ml
Detection: 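Imaged Tnf reporter mCherry in nuclei, minus background, normalised per plate to the median and expressed as robust z-scores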
Scale: Tnf reporter robust z-score: higher = stronger Tnf promoter reporter signal after LPS; Tnf reporter intensity: higher = stronger Tnf promoter reporter signal
Call rule: 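a well counts as active at a score of -1.3 or below (Tlr4 knock-down control median) or above 3 (raised signal); controls and wells holding fewer than 50 cells are excluded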
Calls: active = Tnf reporter clearly lowered or raised; inactive = no clear change in Tnf reporter
Shown is one part, drawn at random, of about 17,000 reagents tested. Over the whole deposit, about 1,110 (6.6%) got an active call. 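Active means lowered or raised reporter signal; replicate intensities are raw and not normalised per plate.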 Reagents against one gene are numbered here. Some reagents were tested in more than one well and are listed for each.

Gene | pool no. | Tnf reporter robust z-score | fewer than 50 cells in well | Tnf reporter intensity, replicate 1 | Tnf reporter intensity, replicate 2 | call
Paqr7 (progestin and adipoQ receptor family member VII) | 1 | -0.9 | enough cells in well | 180 | 145 | inactive
Or6k14 (olfactory receptor family 6 subfamily K member 14) | 1 | 0.65 | enough cells in well | 96.1 | 174 | inactive
Or8b41 (olfactory receptor family 8 subfamily B member 41) | 1 | 1.04 | enough cells in well | 120 | 175 | inactive
Olfr197 (olfactory receptor 197) | 1 | -0.54 | enough cells in well | 152 | 95.8 | inactive
Or5w15 (olfactory receptor family 5 subfamily W member 15) | 1 | -0.92 | enough cells in well | 126 | 106 | inactive
Fig4 (FIG4 phosphoinositide 5-phosphatase) | 1 | 0.55 | enough cells in well | 186 | 188 | inactive
Sun5 (Sad1 and UNC84 domain containing 5) | 1 | – | fewer than 50 cells per well; well left out of calls | 77.8 | 59.3 | inactive
Cd3d (CD3 antigen, delta polypeptide) | 1 | 1.9 | enough cells in well | 355 | 388 | inactive
Gns (glucosamine (N-acetyl)-6-sulfatase) | 1 | 0.25 | enough cells in well | 237 | 222 | inactive
Ndufaf4 (NADH:ubiquinone oxidoreductase complex assembly factor 4) | 1 | -1.4 | enough cells in well | 156 | 35.8 | active
Elof1 (ELF1 homolog, elongation factor 1) | 1 | -0.51 | enough cells in well | 262 | 51.3 | inactive
Ttc17 (tetratricopeptide repeat domain 17) | 1 | – | fewer than 50 cells per well; well left out of calls | 135 | 78.6 | inactive
Ddit4l (DNA-damage-inducible transcript 4-like) | 1 | 1.58 | enough cells in well | 355 | 194 | inactive
Gcm2 (glial cells missing homolog 2) | 1 | -1.07 | enough cells in well | 187 | 129 | inactive
Fiz1 (Flt3 interacting zinc finger protein 1) | 1 | -0.89 | enough cells in well | 172 | 96.7 | inactive
Pou3f1 (POU domain, class 3, transcription factor 1) | 1 | -0.46 | enough cells in well | 205 | 165 | inactive
Pirb (paired Ig-like receptor B) | 1 | 0.89 | enough cells in well | 173 | 164 | inactive
Abca8b (ATP-binding cassette, sub-family A member 8b) | 1 | -0.31 | enough cells in well | 167 | 185 | inactive
Zfp868 (zinc finger protein 868) | 1 | 0 | enough cells in well | 229 | 164 | inactive
Creb3l2 (cAMP responsive element binding protein 3-like 2) | 1 | -0.37 | enough cells in well | 81.3 | 170 | inactive
Or4a68 (olfactory receptor family 4 subfamily A member 68) | 1 | 3.57 | enough cells in well | 375 | 282 | active
Il17ra (interleukin 17 receptor A) | 1 | 0.03 | enough cells in well | 233 | 158 | inactive
Fkbp14 (FK506 binding protein 14) | 1 | 0.14 | enough cells in well | 141 | 184 | inactive
Dnpep (aspartyl aminopeptidase) | 1 | 2.82 | enough cells in well | 378 | 216 | inactive
Sclt1 (sodium channel and clathrin linker 1) | 1 | 0.66 | enough cells in well | 259 | 100 | inactive
E130113K22RIK | 1 | 1.25 | enough cells in well | 285 | 150 | inactive
Abtb2 (ankyrin repeat and BTB domain containing 2) | 1 | 0.75 | enough cells in well | 156 | 199 | inactive
Or52d1 (olfactory receptor family 52 subfamily D member 1) | 1 | 3.87 | enough cells in well | 241 | 253 | active
Glcci1 (glucocorticoid induced transcript 1) | 1 | 2.01 | enough cells in well | 307 | 301 | inactive
Tex14 (testis expressed gene 14 intercellular bridge forming factor) | 1 | 1.45 | enough cells in well | 187 | 257 | inactive
Nck1 (non-catalytic region of tyrosine kinase adaptor protein 1) | 1 | -0.03 | enough cells in well | 311 | 162 | inactive
Csnk1g2 (casein kinase 1, gamma 2) | 1 | -0.48 | enough cells in well | 167 | 150 | inactive
Skic8 (SKI8 subunit of superkiller complex) | 1 | – | fewer than 50 cells per well; well left out of calls | 234 | 123 | inactive
Fhit (fragile histidine triad gene) | 1 | -0.59 | enough cells in well | 203 | 190 | inactive
Trpa1 | 1 | 0.28 | enough cells in well | 208 | 159 | inactive
Zfp426 (zinc finger protein 426) | 1 | 1 | enough cells in well | 155 | 180 | inactive
Pxmp4 (peroxisomal membrane protein 4) | 1 | -0.03 | enough cells in well | 141 | 115 | inactive
Zbtb22 (zinc finger and BTB domain containing 22) | 1 | -0.49 | enough cells in well | 90.1 | 106 | inactive
Gp5 (glycoprotein 5 platelet) | 1 | -0.54 | enough cells in well | 181 | 166 | inactive
Klhl12 (kelch-like 12) | 1 | -1.19 | enough cells in well | 123 | 73.5 | inactive
Gclm (glutamate-cysteine ligase, modifier subunit) | 1 | -0.22 | enough cells in well | 206 | 142 | inactive
Ptch1 (patched 1) | 1 | 0.71 | enough cells in well | 271 | 268 | inactive
Nphp3 (nephronophthisis 3 (adolescent)) | 1 | 1.02 | enough cells in well | 231 | 86.1 | inactive
Rpl27 (ribosomal protein L27) | 1 | -1.27 | enough cells in well | 81.4 | 64.5 | inactive
Svbp (small vasohibin binding protein) | 1 | 0.2 | enough cells in well | 237 | 84.1 | inactive
Cpt1a (carnitine palmitoyltransferase 1a, liver) | 1 | -0.45 | enough cells in well | 194 | 178 | inactive
Lyzl4 (lysozyme-like 4) | 1 | -1.04 | enough cells in well | 142 | 33.4 | inactive
Nkrf (NF-kappaB repressing factor) | 1 | 0.33 | enough cells in well | 236 | 172 | inactive
Smim14 (small integral membrane protein 14) | 1 | 0.65 | enough cells in well | 273 | 107 | inactive
Setd1a (SET domain containing 1A) | 1 | 1.68 | enough cells in well | 392 | 156 | inactive
Setd1a (SET domain containing 1A) | 2 | -0.26 | enough cells in well | 143 | 242 | inactive
Klk8 (kallikrein related-peptidase 8) | 1 | 0.07 | enough cells in well | 147 | 118 | inactive
Nuak2 (NUAK family, SNF1-like kinase, 2) | 1 | 3.03 | enough cells in well | 191 | 322 | active
Nuak2 (NUAK family, SNF1-like kinase, 2) | 1 | – | fewer than 50 cells per well; well left out of calls | 276 | 96.7 | inactive
Traf6 (TNF receptor-associated factor 6) | 1 | -0.85 | enough cells in well | 166 | 160 | inactive
Fastkd5 (FAST kinase domains 5) | 1 | 0.49 | enough cells in well | 189 | 209 | inactive
Relch | 1 | – | fewer than 50 cells per well; well left out of calls | 166 | 61.2 | inactive
Zkscan1 (zinc finger with KRAB and SCAN domains 1) | 1 | -0.38 | enough cells in well | 99.1 | 156 | inactive
